Measurements reported in patent publication US7026281B1 (The Administrators of the Tulane Educational Fund, priority 1998, dated 2006).

Experiments:
[1] = general procedure: Boc solid-phase peptide synthesis; MBHA; DIC; preformed HOBt esters for Boc-Asn-OH and Boc-Gln-OH; settings: whole synthesis
[2] = general procedure: Boc solid-phase peptide synthesis; MBHA resin (Bachem); DIC; preformed HOBt esters for Boc-Asn-OH and Boc-Gln-OH; settings: whole synthesis, 220 and 280 nm, scale of the general procedure 0.50 mmole, 0.070 mmole

Row | Substance | crude mass ([1]; scale 0.50 mmol) [g] | final HPLC purity [2] [%] | crude mass ([1]; scale 0.070 mmol) [g]
1 | [PhAc^0, D-Arg^2, Phe(pCl)^6, Arg^9, Abu^15, Nle^27, D-Arg^28, Har^29]hGH-RH(1–29)NH2 | 1.51 | >95 | 
2 | [PhAc^0, D-Arg^2, Phe(pCl)^6, Har^9, Tyr(Me)^10, Abu^15, Nle^27, D-Arg^28, Har^29]hGH-RH(1–29)NH2 |  | >95 | 0.112
